This assay concerns HEK293A TEAD-LUC reporter. Put plainly: TEAD-luciferase reporter activity (YAP activation), robust Z score vs plate; higher = stronger YAP/TEAD activation. The conditions noted are these: 24 h. For orientation: Reporter assays use an easily measured gene product as a stand-in for the process of interest.

Where a name gives a salt, the structure may show the parent alone. The list shows a part of the results. Repeats in this data set agree poorly, so a single value says little.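 The human kidney-derived cells carry a stably integrated construct of eight TEAD-binding elements driving luciferase, read by luminescence in a drug-repurposing library screen. A compound counts as a hit when its signal is more than five robust Z scores above the plate mean.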

For the compound `CC(=O)NC1CC2(CCN(C(=O)Cc3ccc(O)cc3)CC2)c2ccccc21` (stereo unspecified), the TEAD-luciferase reporter activity is, setting by setting: (compound concentration: 200 nM) inactive: -2.04; (compound concentration: 10 uM) inactive: -0.155.

With `C=CC1=C(C)c2cc3[nH]c(cc4nc(cc5[nH]c(cc1n2)c(C)c5C=C)C(C)=C4CCC(=O)O)c(CCC(=O)O)c3C`, the TEAD-luciferase reporter activity is, setting by setting: (compound concentration: 200 nM) inactive: -0.991; (compound concentration: 2 uM) inactive: -0.899; (compound concentration: 10 uM) inactive: -1.34.

`Cc1nsc(NC(=O)c2ccccc2)c1C(=O)Nc1ccc(Cl)cc1` [denotivir]: the TEAD-luciferase reporter activity runs as follows: (compound concentration: 200 nM) inactive: -1.07; (compound concentration: 2 uM) inactive: -0.795; (compound concentration: 10 uM) inactive: 1.34.

Take `CCOC(=O)Cc1nc(-c2ccc(Cl)cc2)oc1-c1ccco1`: the TEAD-luciferase reporter activity (compound concentration: 200 nM) was inactive: 0.733, the TEAD-luciferase reporter activity (compound concentration: 2 uM) is inactive: -0.965 and the TEAD-luciferase reporter activity (compound concentration: 10 uM) was inactive: 1.

For the compound `NC(=O)C1(NC(=O)[C@H](Cc2ccccc2)NC(=O)[C@@H](Cc2c[nH]c3ccccc23)NC(=O)[C@@H](Cc2csc3ccccc23)NC(=O)C2CCNCC2)CCNCC1` [Relamorelin], the TEAD-luciferase reporter activity by setting is: (compound concentration: 200 nM) inactive: -0.713; (compound concentration: 2 uM) inactive: -1.2; (compound concentration: 10 uM) inactive: 1.37.

For `CC1Nc2ccn3ncc(c3n2)C(=O)NC[C@H](C)Oc2ccc(F)cc21` (stereo partly specified), the TEAD-luciferase reporter activity runs as follows: (compound concentration: 200 nM) inactive: -0.558; (compound concentration: 10 uM) inactive: -1.78.

`COC(=O)[C@@H](c1ccccc1)N1CCC(c2ccc(NC(=O)c3ccccc3-c3ccc(C(F)(F)F)cc3)cc2)CC1` [Usistapide]: the TEAD-luciferase reporter activity (compound concentration: 200 nM) was inactive: -1.03, the TEAD-luciferase reporter activity (compound concentration: 2 uM) was inactive: -0.379 and the TEAD-luciferase reporter activity (compound concentration: 10 uM) was inactive: 1.92.

Take `Cc1nc2c(cc1C(=O)N=C(N)N)CCCCC2COS(=O)(=O)O` (stereo unspecified): the TEAD-luciferase reporter activity was inactive: 0.641 (compound concentration: 200 nM), inactive: 0.153 (compound concentration: 2 uM) and inactive: -2.01 (compound concentration: 10 uM).

Consider `C[Si](C)(C)c1cc(C(=O)Nc2ccc(C(=O)O)cc2)cc([Si](C)(C)C)c1`, for which the TEAD-luciferase reporter activity (compound concentration: 200 nM) was inactive: -1.19, the TEAD-luciferase reporter activity (compound concentration: 2 uM) is inactive: 1.21 and the TEAD-luciferase reporter activity (compound concentration: 10 uM) is inactive: -0.393.

With `C=C(NC(=O)C(=C)NC(=O)c1csc(C2=NC3c4csc(n4)C4NC(=O)c5csc(n5)C(C(C)(O)C(C)O)NC(=O)C5CSC(=N5)/C(=C\C)NC(=O)C(C(C)O)NC(=O)c5csc(n5)C3(CC2)NC(=O)C(C)NC(=O)C(=C)NC(=O)C(C)NC(=O)C(C(C)CC)NC2C=Cc3c(C(C)O)cc(nc3C2O)C(=O)OC4C)n1)C(N)=O` (stereo unspecified), the TEAD-luciferase reporter activity (compound concentration: 200 nM) was inactive: -0.644, the TEAD-luciferase reporter activity (compound concentration: 2 uM) was inactive: 1.97 and the TEAD-luciferase reporter activity (compound concentration: 10 uM) was inactive: 4.14.

With `CCc1cc2c(cc1CC)CC(NC[C@H](O)c1ccc(O)c3[nH]c(=O)ccc13)C2` [indacaterol maleate], the TEAD-luciferase reporter activity (compound concentration: 200 nM) was inactive: 0.739, the TEAD-luciferase reporter activity (compound concentration: 2 uM) was inactive: 0.246 and the TEAD-luciferase reporter activity (compound concentration: 10 uM) was inactive: 4.03.

For the compound `Cn1c(Cc2ccc(Br)c(Oc3cc(Cl)cc(C#N)c3)c2F)n[nH]c1=O`, the TEAD-luciferase reporter activity runs as follows: (compound concentration: 200 nM) inactive: -1.01; (compound concentration: 2 uM) inactive: -1.09; (compound concentration: 10 uM) inactive: -1.01.

For the compound `O=C(Cc1ccccc1)c1cc(O)c(O)c([N+](=O)[O-])c1`, the TEAD-luciferase reporter activity by setting is: (compound concentration: 200 nM) inactive: -0.443; (compound concentration: 2 uM) inactive: 0.542; (compound concentration: 10 uM) inactive: 0.953.

As for `N=c1nc(N2CCCCC2)cc(N)n1O` [minoxidil], the TEAD-luciferase reporter activity (compound concentration: 2 uM) was inactive: 4.2.

`N=c1nc(N2CCCCC2)cc(N)n1O` [Minoxidil]: the TEAD-luciferase reporter activity was inactive: -0.692 (compound concentration: 200 nM), inactive: -0.208 (compound concentration: 2 uM) and inactive: 0.381 (compound concentration: 10 uM).

Turning to `CN1CCN(C2Cc3cc(Cl)ccc3Sc3ccccc32)CC1` (stereo unspecified), the TEAD-luciferase reporter activity is inactive: 1.27 (compound concentration: 200 nM), inactive: -0.879 (compound concentration: 2 uM) and inactive: 1.78 (compound concentration: 10 uM).

In the case of `CCC(C)C(N)C1=NC(C(=O)N[C@@H](CC(C)C)C(=O)N[C@H](CCC(=O)O)C(=O)N[C@H](C(=O)N[C@H]2CCCCNC(=O)[C@@H](CC(N)=O)NC(=O)[C@@H](CC(=O)O)NC(=O)[C@@H](Cc3cnc[nH]3)NC(=O)[C@@H](Cc3ccccc3)NC(=O)[C@@H]([C@@H](C)CC)NC(=O)[C@@H](CCCN)NC2=O)[C@@H](C)CC)CS1` (stereo partly specified), the TEAD-luciferase reporter activity was inactive: 1.6 (compound concentration: 200 nM), inactive: -1.77 (compound concentration: 2 uM) and inactive: 2.11 (compound concentration: 10 uM).

As for `CC1=C2[N+]3=C(C=C4[N+]5=C(C(C)=C6[N]7C(C(CC(N)=O)C6(C)CCC(=O)NCC(C)OP(=O)(O)OC6C(CO)OC(n8cnc9cc(C)c(C)cc98)C6O)C6(C)[N+](=C1C(CCC(N)=O)C6(C)CC(N)=O)[Co]753[CH3])C(CCC(N)=O)C4(C)C)C(CCC(N)=O)C2(C)CC(N)=O` (stereo unspecified), the TEAD-luciferase reporter activity (compound concentration: 200 nM) is inactive: -0.697 and the TEAD-luciferase reporter activity (compound concentration: 2 uM) was inactive: -1.62.

In the case of `CCCC(=O)N1Cc2ccccc2CC2(CCCCN2CC)C1` (stereo unspecified), the TEAD-luciferase reporter activity was inactive: 0.264 (compound concentration: 200 nM) and inactive: 1.39 (compound concentration: 10 uM).

`CN(C)CC(c1ccc(O)cc1)C1(O)CCCCC1` (stereo unspecified) [desmethylvenlafaxine]: the TEAD-luciferase reporter activity (compound concentration: 200 nM) is inactive: -1.02, the TEAD-luciferase reporter activity (compound concentration: 2 uM) is inactive: 1.06 and the TEAD-luciferase reporter activity (compound concentration: 10 uM) is inactive: -0.308.

On to `O=C(O)c1ccc2nc3ccccn3c(=O)c2c1` [doqualast], for which the TEAD-luciferase reporter activity by setting is: (compound concentration: 200 nM) inactive: -1.62; (compound concentration: 2 uM) inactive: -1.12; (compound concentration: 10 uM) inactive: 2.45.

For the compound `C=CCSc1nnc(-c2cc(C(C)(C)C)c(O)c(C(C)(C)C)c2)s1`, the TEAD-luciferase reporter activity (compound concentration: 200 nM) was inactive: -0.631, the TEAD-luciferase reporter activity (compound concentration: 2 uM) was inactive: 1.08 and the TEAD-luciferase reporter activity (compound concentration: 10 uM) was inactive: -0.406.

With `CC/C(=C(/CC)c1ccc(OP(=O)(O)O)cc1)c1ccc(OP(=O)(O)O)cc1`, the TEAD-luciferase reporter activity by setting is: (compound concentration: 200 nM) inactive: -1.59; (compound concentration: 2 uM) inactive: 2.24; (compound concentration: 10 uM) inactive: 0.538.

Consider `Cc1ccc(Cn2nc(-c3ccc(Cl)c(C)c3)cc2C(=O)N[C@@H]2C(C)(C)[C@@H]3CC[C@@]2(C)C3)cc1`, for which the TEAD-luciferase reporter activity is inactive: -0.644 (compound concentration: 200 nM), inactive: -0.849 (compound concentration: 2 uM) and inactive: 1.2 (compound concentration: 10 uM).

These data come from the supplement of paper PMC10735217.
